Laboratory results reported in PubChem BioAssay AID504467 (National Center for Advancing Translational Sciences (NCATS), 2011).
About 7,700 (2.3%) of roughly 330,000 compounds were called active. This list was built around the results that the source calls inconclusive (neither active nor inactive); the mix of calls is not that of the screen. The call rests on the fitted dose curve; in most records, active means well fitted inhibition curve with a large enough effect; inconclusive means small, poorly fitted or top-dose-only effect, or effect the other way; inactive means flat fitted curve, though single readings scatter. A potency beside an inconclusive call is a rough fit, not a confirmed value.

assay: qHTS screen for small molecules that inhibit ELG1-dependent DNA repair in human embryonic kidney (HEK293T) cells expressing luciferase-tagged ELG1; settings: HEK293T ELG1-luciferase reporter, luminescence, 16 h, DNA damage induced by 5-fluorouridine; series mostly up to 46.1 µM; further: nearly all actives have a fitted effect of over 55% in size
Method in brief: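 HEK293T cells expressing luciferase-tagged ELG1 (2,000/well) received 5-Fluorouridine plus compound or DMSO for 16 hr at 37 °C. Luciferase was read by ONE-Glo luminescence after 30 min at room temperature.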
Potency means the concentration at half of the fitted maximal effect.

With `COCCN1C(=O)Cc2c1nc(N)c1c(N)nc(N3CCN(c4ccc(F)cc4)CC3)c(C#N)c21` as the molecule, how does the Potency read?
Its Potency is “inactive”.

With `Cc1ccc(C(=O)O)cc1-c1ccc(/C=C2\SC(=O)N(CC(=O)Nc3ccccc3)C2=O)o1` as the molecule, how does the Potency read?
The Potency was “inactive”.

With `CCCn1nc(C(=O)NNC(=O)CSC(C)C(=O)Nc2cc(C)on2)c2ccccc2c1=O` (centres undefined) as the molecule, how does the Potency read?
Its Potency is inconclusive: 9.2 µM [inhibitor, partial curve].

With `CC1Cc2nc(SCC(=O)NC3CCCCC3)n(C)c(=O)c2S1` (centres undefined) as the molecule, how does the Potency read?
The Potency was “inactive”.

With `Cc1nn(-c2ccccc2)c2nc(N)c(C#N)c(-c3ccc(O)c(O)c3)c12` as the molecule, how does the Potency read?
Its Potency is “inactive”.

For `Cc1cc(Oc2ccc3ccccc3c2)nc(SCC(=O)c2ccccc2)n1`, which Potency is on record?
Its Potency is inconclusive: 29.1 µM [inhibitor, single point].

With `Cc1c(C(=O)N/N=C/C(C)C)[nH]c2c([N+](=O)[O-])cccc12` as the molecule, how does the Potency read?
Its Potency is “inactive”.

Which Potency does the source give for `NS(=O)(=O)c1ccc(CNC(=O)c2cc(-c3ccccn3)nc3ccc(Cl)cc23)cc1` here?
Its Potency is inconclusive: 29.1 µM [activator, partial curve, poor fit].

With `COc1ccc(-c2noc(C(C)NC(=O)c3ccco3)n2)cc1OC` (centres undefined) as the molecule, how does the Potency read?
Its Potency is “inactive”.

With `CCn1c(=O)c(C(=O)NCc2ccc3c(c2)OCO3)c(O)c2ccccc21` as the molecule, how does the Potency read?
The Potency was inconclusive: 7.94 µM [activator, partial curve, poor fit].

Which Potency does the source give for `CCOc1ccc(C(=O)Nc2ccc(Cc3ccncc3)cc2)cc1Br` here?
The Potency was inconclusive: 29.1 µM [inhibitor, single point].

For `CC(Oc1cc2oc(=O)c3c(c2cc1Cl)CCC3)C(=O)NCc1ccncc1` (centres undefined), which Potency is on record?
The Potency was inconclusive: 29.1 µM [inhibitor, single point].

For `Cc1cc(N2CCC(C)CC2)nc(SCC(=O)c2ccccc2)n1`, which Potency is on record?
Its Potency is inconclusive: 20.6 µM [inhibitor, single point].

Which Potency does the source give for `COc1cccc(-c2nnc(N(C)C(=O)C3CCOC3)s2)c1` (centres undefined) here?
The Potency was inconclusive: 11.6 µM [activator, partial curve].

With `CS(=O)(=O)Nc1ccc(C(=O)Nc2cccc([N+](=O)[O-])c2)cc1` as the molecule, how does the Potency read?
The Potency was “inactive”.

For `O=c1c2c(n3nnnc3n1-c1ccccc1)-c1ccccc1CC21CCCC1`, which Potency is on record?
The Potency was “inactive”.

Which Potency does the source give for `COCCNC(=O)c1cccc2c1C(=O)c1ccc(N3CCOCC3)cc1S2(=O)=O` here?
The Potency was “inactive”.

With `COC(=O)[C@@]1(C)[C@H]2C(=O)N(C)C(=O)[C@H]2[C@H]2CN=C(SC)N21` as the molecule, how does the Potency read?
The Potency was “inactive”.

With `CN(C)c1ccc(/C=N/Nc2nncc3ccccc23)cc1` as the molecule, how does the Potency read?
Its Potency is inconclusive: 0.517 µM [activator, full curve].

With `O=C(NC1CCCCC1)c1ccc(CN2CCOCC2)cc1` as the molecule, how does the Potency read?
The Potency was inconclusive: 16.4 µM [activator, partial curve].

With `COc1ccc(-c2ccnc3nc(N4CCOCC4)nn23)cc1` as the molecule, how does the Potency read?
Its Potency is “inactive”.

For `CC(C)Oc1ccc(C(=O)NCC(=O)OCC(=O)N(C)Cc2cccs2)cc1`, which Potency is on record?
Its Potency is “inactive”.

With `O=C(N/N=C/c1ccc(Cl)cc1Cl)c1cccc(F)c1` as the molecule, how does the Potency read?
Its Potency is inconclusive: 0.92 µM [activator, full curve].

Which Potency does the source give for `Cc1ccc(Oc2ccc(-c3nc(N)nc(N)n3)cc2)cc1` here?
The Potency was “inactive”.

Which Potency does the source give for `c1ccc(-c2nc(-n3nc4ccccc4n3)nc3ccccc23)cc1` here?
Its Potency is inconclusive: 29.1 µM [inhibitor, single point].

With `O=C(N/N=C/c1ccncc1)c1nc2ccccc2c(=O)[nH]1` as the molecule, how does the Potency read?
The Potency was inconclusive: 18.3 µM [activator, partial curve].

With `COc1ccc(CN(C(=O)c2cccs2)c2ccccc2)cc1` as the molecule, how does the Potency read?
The Potency was “inactive”.

With `CN(C)c1ccc(CNc2ncc(Br)cc2Br)cc1` as the molecule, how does the Potency read?
Its Potency is inconclusive: 14.6 µM [activator, partial curve].

For `Cn1c(SCc2cccnc2)nc2cccnc21`, which Potency is on record?
Its Potency is inconclusive: 20.6 µM [activator, partial curve].

For `O=C(Nc1ccccc1Cl)C1CCCN(S(=O)(=O)c2ccc(F)cc2)C1` (centres undefined), which Potency is on record?
The Potency was “inactive”.

With `Cc1cc(C)n2nc3nc(N4CCCCC4)nc(-c4ccco4)c3c2n1` as the molecule, how does the Potency read?
Its Potency is inconclusive: 16.4 µM [inhibitor, single point].

With `CCOC(=O)c1ccc(NC(=O)c2nc(S(=O)(=O)Cc3ccccc3)ncc2Cl)cc1` as the molecule, how does the Potency read?
The Potency was inconclusive: 20.6 µM [inhibitor, single point].

For `Cc1ccccc1OCC(=O)NNC(=O)c1ccc(-n2cncn2)c([N+](=O)[O-])c1`, which Potency is on record?
The Potency was inconclusive: 4.61 µM [activator, single point].

For `O=C(CN1C(=O)COc2ccccc21)NC1CCCC1`, which Potency is on record?
The Potency was “inactive”.

With `Cc1ccc2c(c1)c1c(n2CC(O)CNC2CCCCC2)CCCC1` (centres undefined) as the molecule, how does the Potency read?
The Potency was inconclusive: 20.6 µM [inhibitor, single point].

For `COc1ccc(CNC(=S)Nc2ccc(OC)cc2)cc1`, which Potency is on record?
Its Potency is “inactive”.

Which Potency does the source give for `CCC(CC)C(=O)Nc1cccc(C(=O)c2ccccc2)c1` here?
The Potency was “inactive”.

Which Potency does the source give for `Cc1ccc2nc3ccc(N4CCCCCCC4)nn3c(=O)c2c1` here?
The Potency was inconclusive: 0.82 µM [activator, single point].

For `COCCCNS(=O)(=O)c1ccc2[nH]c3c(c2c1)CCCCC3`, which Potency is on record?
Its Potency is inconclusive: 16.4 µM [inhibitor, partial curve].

Which Potency does the source give for `C[C@@H](C(=O)NNC(=O)c1ccc(Cl)cc1)N1C(=O)C2CC=CCC2C1=O` (some centres undefined) here?
Its Potency is “inactive”.

With `Cc1c(NC(=O)Cn2ccc([N+](=O)[O-])n2)c(=O)n(-c2ccccc2)n1C` as the molecule, how does the Potency read?
Its Potency is “inactive”.

For `COc1ccc(C(=O)CN2C3=NCCCN3c3ccccc32)cc1OC`, which Potency is on record?
Its Potency is inconclusive: 25.9 µM [inhibitor, single point].

With `COC(=O)c1cnn(-c2ccc(F)cc2F)c1/C=N/NC(N)=S` as the molecule, how does the Potency read?
Its Potency is active: 13 µM.

With `COC(=O)CS(=O)(=O)c1ccsc1C(=O)Nc1ccc(F)cc1` as the molecule, how does the Potency read?
Its Potency is “inactive”.

With `O=C1NN(c2ccc(Cl)c(Cl)c2)C(=O)/C1=C/c1ccc(-c2ccccc2C(=O)O)o1` as the molecule, how does the Potency read?
The Potency was “inactive”.

With `O=C(COc1ccc2c(c1)CCC2)NCc1cccc(Cl)c1` as the molecule, how does the Potency read?
Its Potency is “inactive”.

Which Potency does the source give for `Cc1nn(-c2ccccc2)nc1C(=O)Nc1nnc(C(F)(F)F)s1` here?
Its Potency is active: 14.6 µM.

For `CCOC(=O)c1sc(NC(=O)COC(=O)CNC(=O)C2CCCCC2)c(C(=O)OCC)c1C`, which Potency is on record?
The Potency was inconclusive: 23.1 µM [inhibitor, partial curve, poor fit].

For `Cc1ccc(C)c(NC(=O)COc2cccc3c2CCN(Cc2ccccc2C)C3=O)c1`, which Potency is on record?
Its Potency is inconclusive: 29.1 µM [inhibitor, single point].

Which Potency does the source give for `Cc1sc(=NC(=O)c2ccco2)n(C)c1-c1ccc(F)cc1` here?
Its Potency is inconclusive: 16.4 µM [activator, partial curve].

With `COc1ccc(C(=O)Nc2ccccc2[N+](=O)[O-])cc1S(=O)(=O)N1CCOCC1` as the molecule, how does the Potency read?
Its Potency is inconclusive: 11.6 µM [inhibitor, partial curve].

With `CC(=O)Oc1ccc(N(C(C)=O)S(=O)(=O)c2cccs2)c2ccccc12` as the molecule, how does the Potency read?
Its Potency is active: 14.6 µM.

Which Potency does the source give for `CC1CCN(C(=O)COC(=O)c2cccc(NS(=O)(=O)c3ccccc3)c2)CC1` here?
The Potency was “inactive”.

Which Potency does the source give for `Cc1ccc(CNC(=O)c2cc3c(=O)n4cccc(C)c4nc3n(CC3CCCO3)c2=N)cc1` (centres undefined) here?
The Potency was “inactive”.

With `COc1cc(/C=C/C(=O)OCC(=O)Nc2cc(C(F)(F)F)ccc2N2CCOCC2)ccc1O` as the molecule, how does the Potency read?
Its Potency is inconclusive: 6.51 µM [inhibitor, single point].

With `C[C@]12CC[C@H](OC(=O)CCC(=O)O)CC1=CCC1C2CC[C@@]2(C)C1CC[C@@H]2N` (some centres undefined) as the molecule, how does the Potency read?
Its Potency is inconclusive: 20.6 µM [activator, partial curve, poor fit].

Which Potency does the source give for `Cc1ccc(-n2c(=O)c(C#N)cc3c(=O)n4cccc(C)c4nc32)cc1` here?
Its Potency is inconclusive: 18.4 µM [activator, single point].

With `O=C(Oc1ccc(-c2cnc3ccccc3n2)cc1)c1ccc(Br)o1` as the molecule, how does the Potency read?
Its Potency is inconclusive: 9.2 µM [activator, partial curve].

With `COc1ccccc1-c1oc2ccccc2c1-c1ccc2c(c1)OCO2` as the molecule, how does the Potency read?
Its Potency is inconclusive: 32.6 µM [activator, single point].

Which Potency does the source give for `Cc1ccc(NC(=O)C2CCN(S(=O)(=O)c3cccs3)CC2)cc1` here?
Its Potency is “inactive”.

Which Potency does the source give for `COc1ccc(CN=C2NN=C(c3ccc(Cl)cc3)CS2)cc1` here?
The Potency was inconclusive: 18.3 µM [activator, partial curve].

Which Potency does the source give for `CCN(CC(=O)Nc1ccc(NC(C)=O)cc1)C(=O)/C=C/c1cn(-c2ccccc2)nc1-c1ccc(C)cc1` here?
Its Potency is active: 8.2 µM.

For `COc1ccccc1/C=C1\SC(=S)N(CCC(=O)NCCCn2ccnc2)C1=O`, which Potency is on record?
The Potency was “inactive”.

With `Cc1ccsc1/C=N/Nc1ccc(C(=O)O)cc1` as the molecule, how does the Potency read?
The Potency was inconclusive: 0.103 µM [activator, full curve, poor fit].

Which Potency does the source give for `CC(C)c1ccc(Nc2ncccc2C(=O)O)cc1` here?
The Potency was inconclusive: 3.26 µM [activator, full curve].

Which Potency does the source give for `CC(=O)N(Cc1cccs1)Cc1cc2ccc(C)c(C)c2nc1Cl` here?
Its Potency is active: 11.6 µM.

Which Potency does the source give for `O=C(O)CCC(NS(=O)(=O)c1ccc(N2CCCC2=O)cc1)C(=O)O` (centres undefined) here?
Its Potency is inconclusive: 0.184 µM [activator, full curve, poor fit].

Which Potency does the source give for `O=C(Nc1ccc(Br)cc1)c1ccc(F)c(S(=O)(=O)N2CCN(c3ccccn3)CC2)c1` here?
Its Potency is active: 2.91 µM.

For `CCCC(C(=O)Nc1ccc(S(=O)(=O)N2CCOCC2)cc1)c1ccccc1` (centres undefined), which Potency is on record?
The Potency was inconclusive: 29.1 µM [inhibitor, single point].

Which Potency does the source give for `COc1ccc(C(=O)OCc2cc(=O)n3c(C)csc3n2)cc1F` here?
Its Potency is inconclusive: 6.51 µM [activator, partial curve].

With `CCN1c2ccccc2-c2nc3ccccc3n2C1c1ccco1` (centres undefined) as the molecule, how does the Potency read?
Its Potency is “inactive”.

With `CCOC(=O)CNC(c1ccccc1)c1cc(Br)ccc1NC(=O)OCC` (centres undefined) as the molecule, how does the Potency read?
The Potency was “inactive”.

With `N#CCCN(C(=O)COC(=O)C12CC3CC(CC(O)(C3)C1)C2)c1ccc(F)cc1` as the molecule, how does the Potency read?
Its Potency is “inactive”.

Which Potency does the source give for `COc1ccc(-c2nc(CSCC(=O)N3CCN(c4cccc(C)c4)C(C)C3)c(C)o2)cc1OC` (centres undefined) here?
Its Potency is active: 14.6 µM.
